Where a chain is given by its changes, count along the chain named. No constants are given. Whether binding was seen depends on the method and setting. Binding calls can cover weak binding; strength is not graded here.
Experiments:
Zyx FL WT-mito (human) = molecular target: T1, Zyx FL WT-mito (human) (UniProt Q15942); assay: ectopic recruitment to mitochondria; zyxin-null fibroblasts transfected with Zyx FL WT-mito or Zyx FL MT-mito; endogenous VASP and α-actinin stained with antibodies
T1 sequence: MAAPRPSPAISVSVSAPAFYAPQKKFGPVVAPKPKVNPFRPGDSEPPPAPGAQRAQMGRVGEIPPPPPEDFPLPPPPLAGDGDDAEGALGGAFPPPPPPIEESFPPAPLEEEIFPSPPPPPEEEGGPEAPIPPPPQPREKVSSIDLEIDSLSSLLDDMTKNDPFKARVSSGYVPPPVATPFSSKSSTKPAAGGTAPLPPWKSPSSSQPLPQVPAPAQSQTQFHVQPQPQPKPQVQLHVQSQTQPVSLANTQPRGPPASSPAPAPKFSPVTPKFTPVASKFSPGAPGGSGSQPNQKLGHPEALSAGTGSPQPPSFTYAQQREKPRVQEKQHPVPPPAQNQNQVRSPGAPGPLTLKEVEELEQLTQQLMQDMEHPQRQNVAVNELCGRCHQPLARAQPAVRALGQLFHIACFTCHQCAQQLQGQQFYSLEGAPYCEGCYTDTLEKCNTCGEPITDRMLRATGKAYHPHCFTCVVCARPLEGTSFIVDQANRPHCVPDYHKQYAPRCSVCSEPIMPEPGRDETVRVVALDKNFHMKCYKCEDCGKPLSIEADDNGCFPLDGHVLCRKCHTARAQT

Zyx FL MT-mito (human) = molecular target: T2, Zyx FL MT-mito (human) (UniProt Q15942); assay: as above
T2 sequence: T1 sequence with V60A, G61A, E62A, I63A

binding (Zyx FL WT-mito (human)): binds
binding (Zyx FL MT-mito (human)): binds
Substance: α-actinin

Reference: paper PMC4624954, “Delineating the Tes Interaction Site in Zyxin and Studying Cellular Effects of Its Disruption” (PLoS ONE, 2015)
